The record followed here is US20100136537.

By UniProt entry, the sequences of proteins in these tests, tags left out.
UniProt P54845, whole entry A76V: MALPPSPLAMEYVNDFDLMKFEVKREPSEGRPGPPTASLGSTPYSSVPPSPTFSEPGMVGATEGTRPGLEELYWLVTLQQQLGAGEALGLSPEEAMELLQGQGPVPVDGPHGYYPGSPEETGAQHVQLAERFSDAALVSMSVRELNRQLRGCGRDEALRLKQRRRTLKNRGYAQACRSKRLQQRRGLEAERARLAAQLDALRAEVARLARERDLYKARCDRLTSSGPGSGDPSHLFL
UniProt P54845, whole entry L160P: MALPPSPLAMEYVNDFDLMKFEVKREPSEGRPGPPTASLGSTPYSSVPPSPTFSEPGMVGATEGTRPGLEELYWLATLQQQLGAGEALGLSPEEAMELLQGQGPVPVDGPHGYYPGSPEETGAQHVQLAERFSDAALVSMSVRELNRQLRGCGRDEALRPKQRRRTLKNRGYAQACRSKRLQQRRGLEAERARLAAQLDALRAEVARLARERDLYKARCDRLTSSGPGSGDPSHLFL

Where cells or extracts were used, other partners may take part. For some assays here: Negatives hold for the conditions tested. For some assays here: Protein sequences can lack the tags named with them. For some assays here: The comparison behind a weaker result is the experiment's own reference, which may not be listed here. For some assays here: For at least one entry, the source does not settle the construct or the ends of the probe.

One data set deals with NRL p.A76V (UniProt P54845). In words: EMSA. To be noted: appeared lower than WT binding; protein in a lysate after overexpression; label: 32P.
The next data set deals with NRL p.R218fs (UniProt P54845). The data set can be described thus: EMSA. Particulars: protein in a lysate after overexpression; label: 32P.
The target in a further data set is NRL p.L160fs (UniProt P54845). In words: EMSA. Particulars: protein in a lysate after overexpression; label: 32P.
The target in data set [1] is NRL (UniProt P54845). In words: EMSA. Particulars: protein in a lysate after overexpression; label: 32P.
Another data set has as its target NRL p.L160P (UniProt P54845). The data set can be described thus: EMSA. To be noted: protein in a lysate after overexpression; label: 32P.
Data set [2] deals with NRL (UniProt P54845). In words: competition with a labelled probe. To be noted: NS oligo did not compete for the shifted band; protein in a lysate after overexpression.
For data set [3], the target named is T1, NRL (UniProt P54846).
T1 sequence (looked up, limits assumed): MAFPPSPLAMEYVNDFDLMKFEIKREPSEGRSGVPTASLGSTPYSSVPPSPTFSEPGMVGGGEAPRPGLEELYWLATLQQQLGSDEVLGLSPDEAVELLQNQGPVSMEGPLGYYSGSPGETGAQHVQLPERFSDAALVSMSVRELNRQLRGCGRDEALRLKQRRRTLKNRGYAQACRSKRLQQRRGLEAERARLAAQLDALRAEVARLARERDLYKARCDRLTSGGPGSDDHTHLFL
In words: competition with a labelled probe. To be noted: mutant oligo did not compete; protein in a lysate after overexpression; protein details: COS-1 nuclear extract; variant of Nr2e3-NRE.

In data set [4] the target is T1, NRL. In words: EMSA. To be noted: protein in a lysate after overexpression; protein details: COS-1 nuclear extract; label: 32P.

Regarding “CTCCGAGGTGCTGATTCAGCCGGGA (double strand) [rhodopsin-NRE]”, the binding result with NRL p.A76V is on record as “binds more weakly”; with NRL p.R218fs, “no binding”; in the data set with NRL p.L160fs it was “no binding”; in the data set with NRL [1] it was “binds”; in the data set with NRL p.L160P it was “no binding”.

Regarding “GAGGGAGATATGCTTCATAAGGGCT (double strand) [non-specific oligo NS]”, the binding result with NRL [2] is listed as “no binding”.

With “TGGCCTCTGGTGGCTTTATTTGCAGTTCCAAGGCT (double strand) [Nr2e3-NRE mutant]”, the binding result with NRL [3] is “no binding”.

In the case of “TGGCCTCTGGTGGCTTTGTCAGCAGTTCCAAGGCT (double strand) [Nr2e3-NRE]”, the binding result with NRL [4] is “binds”.
